The other results are listed elsewhere or left out.
Key:
Experiment in all cases: log2 fold change, soluble protein after heating vs DMSO (PISA); higher = thermal stabilisation; K562 lysate, 10 uM; active = over 0.2 and 3.5 SD of the protein, either way, in both replicates (recomputed)
vemurafenib = compound: CCCS(=O)(=O)Nc1ccc(F)c(C(=O)c2c[nH]c3ncc(-c4ccc(Cl)cc4)cc23)c1F [vemurafenib]
Procedure, shortened: (§1)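 Soluble protein was defined as the supernatant remaining after 21,000xg for 90 min, following pooling of heated aliquots and adjustment to 0.5% NP-40 at 4°C. Before that, crude K562 extract at 1 mg/mL protein in PBS pH 7.4 with 1 mM MgCl2 was treated with 10 μM compound for 30 min and heated for 3 min across 48°C-58°C. Quantification used TMTpro 16plex LC-MS/MS with channel sums equalised, and values are log-two fold changes in thermal stability relative to solvent controls from duplicates.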

Amino acid sequences for entries named in this document (tags omitted). A change or cut given only in a name is not applied to a line headed by its entry.
UniProt Q96IG2: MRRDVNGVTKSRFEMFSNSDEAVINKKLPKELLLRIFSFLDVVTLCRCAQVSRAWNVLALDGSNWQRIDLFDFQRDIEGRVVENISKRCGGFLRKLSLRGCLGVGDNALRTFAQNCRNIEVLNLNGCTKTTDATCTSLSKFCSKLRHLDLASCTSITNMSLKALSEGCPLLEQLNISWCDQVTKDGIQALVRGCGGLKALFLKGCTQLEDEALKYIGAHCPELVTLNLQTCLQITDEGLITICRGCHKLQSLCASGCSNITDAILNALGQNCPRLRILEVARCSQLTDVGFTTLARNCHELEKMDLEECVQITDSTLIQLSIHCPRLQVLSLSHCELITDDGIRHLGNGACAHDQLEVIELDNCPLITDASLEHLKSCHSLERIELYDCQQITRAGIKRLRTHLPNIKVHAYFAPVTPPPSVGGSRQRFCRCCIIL
UniProt Q6ZV73: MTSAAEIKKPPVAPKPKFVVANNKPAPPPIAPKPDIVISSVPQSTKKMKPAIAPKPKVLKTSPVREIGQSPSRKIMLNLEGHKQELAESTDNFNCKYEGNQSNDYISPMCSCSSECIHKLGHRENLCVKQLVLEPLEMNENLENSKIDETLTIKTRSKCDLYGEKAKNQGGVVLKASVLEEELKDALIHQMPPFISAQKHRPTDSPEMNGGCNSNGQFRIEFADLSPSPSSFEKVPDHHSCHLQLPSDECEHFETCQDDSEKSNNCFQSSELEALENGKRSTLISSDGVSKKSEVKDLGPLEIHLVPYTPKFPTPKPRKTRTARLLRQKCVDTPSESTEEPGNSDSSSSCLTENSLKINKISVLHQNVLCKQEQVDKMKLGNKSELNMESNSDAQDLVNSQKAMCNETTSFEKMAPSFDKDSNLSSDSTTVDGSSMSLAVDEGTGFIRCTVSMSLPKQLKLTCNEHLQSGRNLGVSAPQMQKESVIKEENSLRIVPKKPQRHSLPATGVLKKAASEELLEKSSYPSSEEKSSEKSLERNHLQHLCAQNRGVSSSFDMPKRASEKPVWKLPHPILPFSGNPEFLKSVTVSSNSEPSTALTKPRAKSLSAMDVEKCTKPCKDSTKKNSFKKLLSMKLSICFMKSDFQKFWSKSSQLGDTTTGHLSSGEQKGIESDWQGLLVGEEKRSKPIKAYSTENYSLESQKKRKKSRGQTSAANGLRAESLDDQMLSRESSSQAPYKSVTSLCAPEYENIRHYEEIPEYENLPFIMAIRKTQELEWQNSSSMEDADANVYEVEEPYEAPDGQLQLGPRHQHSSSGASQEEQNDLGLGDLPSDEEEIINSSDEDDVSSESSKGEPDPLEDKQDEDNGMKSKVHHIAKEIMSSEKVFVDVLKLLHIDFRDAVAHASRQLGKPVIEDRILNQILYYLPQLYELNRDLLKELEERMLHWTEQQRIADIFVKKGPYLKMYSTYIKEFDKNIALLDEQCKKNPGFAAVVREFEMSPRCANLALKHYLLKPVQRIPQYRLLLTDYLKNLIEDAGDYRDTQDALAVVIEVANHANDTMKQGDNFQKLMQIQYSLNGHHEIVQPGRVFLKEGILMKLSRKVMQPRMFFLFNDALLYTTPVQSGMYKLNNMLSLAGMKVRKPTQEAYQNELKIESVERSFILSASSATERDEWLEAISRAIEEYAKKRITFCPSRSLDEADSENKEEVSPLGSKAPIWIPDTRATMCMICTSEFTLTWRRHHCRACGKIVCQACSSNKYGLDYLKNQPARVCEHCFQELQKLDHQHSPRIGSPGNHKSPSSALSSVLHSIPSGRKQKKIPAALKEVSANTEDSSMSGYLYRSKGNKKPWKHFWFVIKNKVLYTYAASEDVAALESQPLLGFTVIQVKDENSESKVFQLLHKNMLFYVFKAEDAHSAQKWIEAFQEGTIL
UniProt P10109: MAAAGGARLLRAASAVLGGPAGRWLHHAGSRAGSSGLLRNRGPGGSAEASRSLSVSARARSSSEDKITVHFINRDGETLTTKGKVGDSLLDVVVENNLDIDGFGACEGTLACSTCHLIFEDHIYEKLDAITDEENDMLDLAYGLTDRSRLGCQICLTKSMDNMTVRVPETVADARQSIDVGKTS
UniProt Q9UHY8: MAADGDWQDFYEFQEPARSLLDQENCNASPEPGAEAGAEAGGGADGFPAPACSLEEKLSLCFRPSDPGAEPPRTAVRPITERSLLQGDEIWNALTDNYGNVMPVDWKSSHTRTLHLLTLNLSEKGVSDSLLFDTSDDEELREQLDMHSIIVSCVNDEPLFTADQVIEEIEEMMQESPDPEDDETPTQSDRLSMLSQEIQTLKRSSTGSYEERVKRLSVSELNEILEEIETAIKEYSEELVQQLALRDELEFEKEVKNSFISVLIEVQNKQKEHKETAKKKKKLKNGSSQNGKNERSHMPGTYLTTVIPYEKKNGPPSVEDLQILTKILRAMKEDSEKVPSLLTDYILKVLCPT
UniProt P09038, whole entry, looked up: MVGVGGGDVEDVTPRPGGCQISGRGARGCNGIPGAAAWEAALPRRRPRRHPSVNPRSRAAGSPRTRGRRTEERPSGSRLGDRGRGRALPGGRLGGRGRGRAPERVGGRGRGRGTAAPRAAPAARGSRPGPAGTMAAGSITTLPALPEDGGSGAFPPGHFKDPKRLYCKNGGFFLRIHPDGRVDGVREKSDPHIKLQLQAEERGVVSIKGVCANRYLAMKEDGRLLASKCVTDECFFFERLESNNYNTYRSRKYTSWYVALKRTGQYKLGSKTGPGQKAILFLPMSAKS
UniProt Q92562: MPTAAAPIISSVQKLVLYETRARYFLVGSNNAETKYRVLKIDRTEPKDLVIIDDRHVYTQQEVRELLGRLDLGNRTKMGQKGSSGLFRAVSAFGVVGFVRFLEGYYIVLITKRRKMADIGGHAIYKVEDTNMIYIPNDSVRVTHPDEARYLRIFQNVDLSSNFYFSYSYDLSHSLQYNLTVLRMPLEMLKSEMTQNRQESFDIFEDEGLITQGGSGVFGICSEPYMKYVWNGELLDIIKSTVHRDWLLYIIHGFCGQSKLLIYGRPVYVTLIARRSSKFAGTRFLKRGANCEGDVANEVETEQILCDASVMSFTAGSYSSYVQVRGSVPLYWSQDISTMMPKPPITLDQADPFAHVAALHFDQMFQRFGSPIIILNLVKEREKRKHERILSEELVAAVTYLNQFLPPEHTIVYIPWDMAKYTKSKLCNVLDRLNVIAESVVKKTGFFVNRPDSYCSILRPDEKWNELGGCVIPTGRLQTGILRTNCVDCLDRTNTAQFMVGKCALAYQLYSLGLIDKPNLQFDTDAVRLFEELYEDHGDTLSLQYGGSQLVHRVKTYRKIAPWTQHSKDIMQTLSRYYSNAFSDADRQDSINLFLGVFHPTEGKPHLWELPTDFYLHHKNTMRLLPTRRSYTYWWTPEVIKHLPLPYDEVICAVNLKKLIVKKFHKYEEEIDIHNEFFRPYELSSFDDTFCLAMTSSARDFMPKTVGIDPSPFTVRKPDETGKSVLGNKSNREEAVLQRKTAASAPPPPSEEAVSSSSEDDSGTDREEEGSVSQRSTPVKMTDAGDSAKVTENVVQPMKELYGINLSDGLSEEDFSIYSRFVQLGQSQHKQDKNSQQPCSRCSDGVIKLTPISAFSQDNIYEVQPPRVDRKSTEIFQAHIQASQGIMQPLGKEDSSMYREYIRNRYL
UniProt Q9Y3I1: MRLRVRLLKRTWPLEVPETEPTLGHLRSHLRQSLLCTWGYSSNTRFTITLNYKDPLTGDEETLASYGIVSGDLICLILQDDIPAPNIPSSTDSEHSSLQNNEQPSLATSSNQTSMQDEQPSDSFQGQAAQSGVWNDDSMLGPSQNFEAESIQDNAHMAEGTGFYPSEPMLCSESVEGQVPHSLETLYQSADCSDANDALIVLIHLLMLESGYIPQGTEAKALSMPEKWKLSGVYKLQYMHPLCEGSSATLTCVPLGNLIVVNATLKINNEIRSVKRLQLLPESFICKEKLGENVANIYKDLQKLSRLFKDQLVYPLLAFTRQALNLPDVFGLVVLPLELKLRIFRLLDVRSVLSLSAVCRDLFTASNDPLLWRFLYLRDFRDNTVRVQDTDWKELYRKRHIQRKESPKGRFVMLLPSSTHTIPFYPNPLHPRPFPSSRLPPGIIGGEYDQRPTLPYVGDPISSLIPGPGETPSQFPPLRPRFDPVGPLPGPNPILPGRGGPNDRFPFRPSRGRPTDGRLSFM
UniProt Q8NEZ5: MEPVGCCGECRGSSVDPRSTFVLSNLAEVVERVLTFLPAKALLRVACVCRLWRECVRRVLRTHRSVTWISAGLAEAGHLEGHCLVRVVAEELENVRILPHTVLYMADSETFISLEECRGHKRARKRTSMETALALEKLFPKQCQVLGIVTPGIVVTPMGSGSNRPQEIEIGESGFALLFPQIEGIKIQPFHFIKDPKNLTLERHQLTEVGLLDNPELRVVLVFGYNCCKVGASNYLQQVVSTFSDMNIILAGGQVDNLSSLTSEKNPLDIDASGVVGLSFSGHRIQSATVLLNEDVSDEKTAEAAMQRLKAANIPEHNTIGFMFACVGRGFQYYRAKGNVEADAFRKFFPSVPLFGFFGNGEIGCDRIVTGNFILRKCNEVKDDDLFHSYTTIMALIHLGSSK
UniProt Q9NRD1: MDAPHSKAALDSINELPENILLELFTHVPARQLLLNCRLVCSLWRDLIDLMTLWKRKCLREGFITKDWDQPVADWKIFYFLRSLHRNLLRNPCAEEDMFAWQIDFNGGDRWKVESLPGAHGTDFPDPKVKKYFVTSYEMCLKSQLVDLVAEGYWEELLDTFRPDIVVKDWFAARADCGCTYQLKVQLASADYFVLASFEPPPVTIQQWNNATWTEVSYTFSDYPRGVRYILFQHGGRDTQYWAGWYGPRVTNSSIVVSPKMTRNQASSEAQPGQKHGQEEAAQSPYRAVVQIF
UniProt Q96GI7: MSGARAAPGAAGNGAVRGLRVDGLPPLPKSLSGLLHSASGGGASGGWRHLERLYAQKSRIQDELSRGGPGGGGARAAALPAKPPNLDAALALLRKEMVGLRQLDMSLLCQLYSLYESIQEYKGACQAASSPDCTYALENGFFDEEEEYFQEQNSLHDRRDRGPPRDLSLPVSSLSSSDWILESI
UniProt Q658Y4: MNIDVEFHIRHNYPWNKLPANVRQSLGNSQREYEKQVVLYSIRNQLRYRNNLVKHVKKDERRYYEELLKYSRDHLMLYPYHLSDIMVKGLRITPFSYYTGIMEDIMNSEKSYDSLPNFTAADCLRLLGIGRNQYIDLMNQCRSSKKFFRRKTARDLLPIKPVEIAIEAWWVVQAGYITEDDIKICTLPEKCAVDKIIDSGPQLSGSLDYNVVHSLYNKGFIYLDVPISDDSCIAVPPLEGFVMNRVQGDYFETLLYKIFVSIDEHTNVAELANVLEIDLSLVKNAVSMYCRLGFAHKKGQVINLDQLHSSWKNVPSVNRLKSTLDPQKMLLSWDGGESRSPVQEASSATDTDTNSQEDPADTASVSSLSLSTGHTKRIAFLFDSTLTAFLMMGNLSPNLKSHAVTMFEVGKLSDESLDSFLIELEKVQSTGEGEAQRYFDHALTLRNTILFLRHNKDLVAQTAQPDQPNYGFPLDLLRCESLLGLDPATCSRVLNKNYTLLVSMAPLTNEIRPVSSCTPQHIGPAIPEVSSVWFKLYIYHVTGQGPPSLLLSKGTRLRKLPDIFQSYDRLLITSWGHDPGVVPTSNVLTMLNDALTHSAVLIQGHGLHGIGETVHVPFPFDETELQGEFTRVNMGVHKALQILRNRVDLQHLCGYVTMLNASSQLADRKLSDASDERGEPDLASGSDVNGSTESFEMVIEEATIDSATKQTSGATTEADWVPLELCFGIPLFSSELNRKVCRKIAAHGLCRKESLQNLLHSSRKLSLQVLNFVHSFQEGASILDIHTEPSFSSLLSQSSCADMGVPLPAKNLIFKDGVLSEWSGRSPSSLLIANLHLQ
UniProt Q9UK73, whole entry, looked up: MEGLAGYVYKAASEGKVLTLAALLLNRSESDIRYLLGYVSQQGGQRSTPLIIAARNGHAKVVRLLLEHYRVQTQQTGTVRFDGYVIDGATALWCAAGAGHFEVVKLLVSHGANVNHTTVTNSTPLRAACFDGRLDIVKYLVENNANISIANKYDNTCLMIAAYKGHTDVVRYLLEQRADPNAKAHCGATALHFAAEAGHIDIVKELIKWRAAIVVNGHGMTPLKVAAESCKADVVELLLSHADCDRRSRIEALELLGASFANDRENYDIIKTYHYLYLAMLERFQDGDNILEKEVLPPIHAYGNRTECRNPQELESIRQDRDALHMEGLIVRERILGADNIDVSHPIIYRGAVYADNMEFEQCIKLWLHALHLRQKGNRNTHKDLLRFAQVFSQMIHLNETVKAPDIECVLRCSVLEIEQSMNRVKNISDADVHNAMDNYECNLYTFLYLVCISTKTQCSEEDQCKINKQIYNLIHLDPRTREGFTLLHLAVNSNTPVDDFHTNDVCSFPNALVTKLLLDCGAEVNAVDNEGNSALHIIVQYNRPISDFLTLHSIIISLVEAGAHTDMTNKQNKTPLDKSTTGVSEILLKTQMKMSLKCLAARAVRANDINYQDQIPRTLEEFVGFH

[1] = compound: CCCS(=O)(=O)Nc1ccc(F)c(C(=O)c2c[nH]c3ncc(Cl)cc23)c1F
Procedure, shortened: as §1

barasertib = compound: CCN(CCCOc1ccc2c(Nc3cc(CC(=O)Nc4cccc(F)c4)[nH]n3)ncnc2c1)CCOP(=O)(O)O [barasertib]
Procedure, shortened: as §1

[2] = compound: CC[C@@H]1C(=O)N(C)c2cnc(Nc3ccc(C(=O)NC4CCN(C)CC4)cc3OC)nc2N1C1CCCC1
Procedure, shortened: as §1

volasertib = compound: CC[C@@H]1C(=O)N(C)c2cnc(Nc3ccc(C(=O)N[C@H]4CC[C@H](N5CCN(CC6CC6)CC5)CC4)cc3OC)nc2N1C(C)C [volasertib]
Procedure, shortened: as §1

[3] = compound: CCn1c(C(=O)N(C2CC2)C2CC2)cc2c3c(ncn3C)c(Nc3cc(C)n(C)n3)nc21
Procedure, shortened: as §1

[4] = compound: CCn1cc(-c2ccnc3[nH]c(-c4cccc(CN(C)C)c4)cc23)c(-c2ccc(NC(=O)N(C)C)cc2)n1
Procedure, shortened: as §1

[5] = compound: CN1CCC(CNc2ccc3ncc(-c4cccc(OC(F)(F)F)c4)n3n2)CC1
Procedure, shortened: as §1

saracatinib = compound: CN1CCN(CCOc2cc(OC3CCOCC3)c3c(Nc4c(Cl)ccc5c4OCO5)ncnc3c2)CC1 [saracatinib]
Procedure, shortened: as §1

sotrastaurin = compound: CN1CCN(c2nc(C3=C(c4c[nH]c5ccccc45)C(=O)NC3=O)c3ccccc3n2)CC1 [sotrastaurin]
Procedure, shortened: as §1

alvocidib = compound: CN1CC[C@H](c2c(O)cc(O)c3c(=O)cc(-c4ccccc4Cl)oc23)[C@H](O)C1 [alvocidib]
Procedure, shortened: as §1

Tubastatin A = compound: CN1CCc2c(c3ccccc3n2Cc2ccc(C(=O)NO)cc2)C1 [Tubastatin A]
Procedure, shortened: as §1

[6] = compound: CNC(=O)C1=CC=CC=C1NC2=NC(=NC=C2Cl)NC3=C(C=C(C=C3)N4CCOCC4)OC
Procedure, shortened: as §1

defactinib = compound: CNC(=O)c1ccc(Nc2ncc(C(F)(F)F)c(NCc3nccnc3N(C)S(C)(=O)=O)n2)cc1 [defactinib]
Procedure, shortened: as §1

[7] = compound: CNc1nc(-c2ccc3c(N)n[nH]c3c2)cc(N2C[C@@H](C(=O)NC3CCCCC3)CC[C@H]2C)n1
Procedure, shortened: as §1

encorafenib = compound: COC(=O)N[C@@H](C)CNc1nccc(-c2cn(C(C)C)nc2-c2cc(Cl)cc(NS(C)(=O)=O)c2F)n1 [encorafenib]
Procedure, shortened: as §1

[8] = compound: COC(=O)[C@H](CCSC)NC(=O)C1=C(C=C(C=C1)NC[C@H](CS)N)C2=CC=CC=C2
Procedure, shortened: as §1

alisertib = compound: COc1cc(Nc2ncc3c(n2)-c2ccc(Cl)cc2C(c2c(F)cccc2OC)=NC3)ccc1C(=O)O [alisertib]
Procedure, shortened: as §1

[9] = compound: COc1cc2nc(-c3cc(F)ccc3O)nc(N[C@@H]3CNC[C@H]3C(C)(C)O)c2cc1OC
Procedure, shortened: as §1

gefitinib = compound: COc1cc2ncnc(Nc3ccc(F)c(Cl)c3)c2cc1OCCCN1CCOCC1 [gefitinib]
Procedure, shortened: as §1

Measured: log2 fold change

FBXL20 (UniProt Q96IG2)
inactive: vemurafenib -0.03 | [1] -0.026 | barasertib 0.152 | [2] 0.037 | volasertib -0.035 | [3] -0.01 | [4] 0.116 | [5] 0.006 | saracatinib -0.032 | sotrastaurin -0.011 | alvocidib -0.065 | Tubastatin A 0.03 | [6] -0.013 | defactinib 0.006 | [7] -0.017 | encorafenib 0.042 | [8] -0.151 | alisertib -0.033 | [9] 0.067 | gefitinib 0.06

FGD6 (UniProt Q6ZV73)
inactive: vemurafenib 0.691 | [1] -0.551 | barasertib -0.401 | [2] 0.356 | volasertib -0.084 | [3] 0.003 | [4] -0.227 | [5] -0.214 | saracatinib 0.05 | sotrastaurin 0.071 | alvocidib 0.168 | Tubastatin A 0.151 | [6] -0.004 | defactinib -0.102 | [7] 0.063 | encorafenib 0.499 | [8] 0.206 | alisertib -0.672 | [9] -0.095 | gefitinib 1.14

FNIP1 isoform 3 (UniProt Q8TF40)
inactive: vemurafenib -0.059 | [1] 0.036 | barasertib -0.022 | [2] -0.012 | volasertib -0.109 | [3] -0.028 | [4] 0.037 | [5] -0.008 | saracatinib -0.012 | sotrastaurin 0.029 | alvocidib -0.026 | Tubastatin A -0.006 | [6] -0.06 | defactinib 0.02 | [7] -0.038 | encorafenib -0.043 | [8] 0.011 | alisertib -0.019 | [9] 0.046 | gefitinib 0.039

FDX1 (UniProt P10109)
inactive: vemurafenib -0.01 | [1] 0.017 | barasertib 0.134 | [2] 0.015 | volasertib 0.037 | [3] 0.032 | [4] -0.024 | [5] -0.009 | saracatinib 0.038 | sotrastaurin -0.071 | alvocidib -0.009 | Tubastatin A 0.028 | [6] -0.153 | defactinib -0.059 | [7] -0.001 | encorafenib -0.035 | [8] 0.047 | alisertib 0.009 | [9] -0.027 | gefitinib -0.113

FEZ2 isoform 2 (UniProt Q9UHY8)
inactive: vemurafenib 0.012 | [1] 0.03 | barasertib -0.05 | [2] 0.02 | volasertib 0.037 | [3] 0.023 | [4] -0.026 | [5] 0.022 | saracatinib -0.057 | sotrastaurin 0.039 | alvocidib -0.003 | Tubastatin A -0.052 | [6] -0.041 | defactinib 0.037 | [7] 0.011 | encorafenib 0.028 | [8] -0.017 | alisertib -0.06 | [9] -0.015 | gefitinib 0.02

FGF2 (UniProt P09038)
inactive: vemurafenib -0.014 | [1] 0.03 | barasertib -0.018 | [2] -0.117 | volasertib 0.026 | [3] 0.089 | [4] -0.132 | [5] 0.072 | saracatinib -0.018 | sotrastaurin 0.031 | alvocidib -0.025 | Tubastatin A -0.017 | [6] 0.021 | defactinib -0.215 | [7] 0.052 | encorafenib 0.11 | [8] -0.077 | alisertib 0.136 | [9] -0.019 | gefitinib 0.058

2 entries drawn at random from the list so far, as already listed:
FNIP1 isoform 3 (UniProt Q8TF40)
inactive: vemurafenib -0.059 | [1] 0.036 | barasertib -0.022 | [2] -0.012 | volasertib -0.109 | [3] -0.028 | [4] 0.037 | [5] -0.008 | saracatinib -0.012 | sotrastaurin 0.029 | alvocidib -0.026 | Tubastatin A -0.006 | [6] -0.06 | defactinib 0.02 | [7] -0.038 | encorafenib -0.043 | [8] 0.011 | alisertib -0.019 | [9] 0.046 | gefitinib 0.039

FEZ2 isoform 2 (UniProt Q9UHY8)
inactive: vemurafenib 0.012 | [1] 0.03 | barasertib -0.05 | [2] 0.02 | volasertib 0.037 | [3] 0.023 | [4] -0.026 | [5] 0.022 | saracatinib -0.057 | sotrastaurin 0.039 | alvocidib -0.003 | Tubastatin A -0.052 | [6] -0.041 | defactinib 0.037 | [7] 0.011 | encorafenib 0.028 | [8] -0.017 | alisertib -0.06 | [9] -0.015 | gefitinib 0.02

Carrying on.

FLNC (UniProt Q14315)
inactive: vemurafenib 0.005 | [1] -0.004 | barasertib -0.014 | [2] 0.038 | volasertib 0.027 | [3] -0.017 | [4] -0.071 | [5] 0.07 | saracatinib -0.001 | sotrastaurin -0.023 | alvocidib -0.031 | Tubastatin A 0.027 | [6] 0.001 | defactinib -0.016 | [7] 0.02 | encorafenib -0.007 | [8] -0.036 | alisertib 0.002 | [9] 0.005 | gefitinib -0.012

FIG4 (UniProt Q92562)
inactive: vemurafenib 0.107 | [1] 0.071 | barasertib -0.085 | [2] -0.201 | volasertib -0.012 | [3] -0.045 | [4] 0.104 | [5] -0.012 | saracatinib 0.032 | sotrastaurin 0.092 | alvocidib -0.106 | Tubastatin A 0.012 | [6] -0.004 | defactinib -0.039 | [7] -0.016 | encorafenib 0.064 | [8] 0.037 | alisertib -0.145 | [9] 0.079 | gefitinib 0.148

FBXO7 (UniProt Q9Y3I1)
inactive: vemurafenib -0.007 | [1] 0.017 | barasertib 0.003 | [2] 0.041 | volasertib 0.01 | [3] 0.029 | [4] -0.066 | [5] 0.063 | saracatinib -0.019 | sotrastaurin -0.053 | alvocidib -0.075 | Tubastatin A -0.003 | [6] 0.005 | defactinib -0.011 | [7] 0.019 | encorafenib 0.024 | [8] -0.005 | alisertib -0.057 | [9] 0.008 | gefitinib -0.017

FBXO22 (UniProt Q8NEZ5)
inactive: vemurafenib 0.017 | [1] 0.001 | barasertib 0.025 | [2] 0.011 | volasertib -0.027 | [3] 0.012 | [4] -0.002 | [5] -0.008 | saracatinib -0.015 | sotrastaurin 0.01 | alvocidib -0.027 | Tubastatin A -0.002 | [6] -0.074 | defactinib 0.01 | [7] -0.004 | encorafenib -0.014 | [8] -0.006 | alisertib 0.034 | [9] 0.013 | gefitinib 0.017

FBXO6 (UniProt Q9NRD1)
inactive: vemurafenib -0.009 | [1] 0.057 | barasertib -0.016 | [2] 0.033 | volasertib 0.013 | [3] 0.013 | [4] 0.019 | [5] 0.033 | saracatinib -0.007 | sotrastaurin -0.019 | alvocidib -0.009 | Tubastatin A -0.03 | [6] 0.036 | defactinib 0.065 | [7] 0.016 | encorafenib -0.023 | [8] 0.067 | alisertib 0.02 | [9] -0.008 | gefitinib 0.004

FERMT2 isoform 3 (UniProt Q96AC1)
inactive: vemurafenib 0.077 | [1] -0.029 | barasertib 0.02 | [2] -0.017 | volasertib -0.032 | [3] 0.037 | [4] -0.013 | [5] 0.062 | saracatinib 0.049 | sotrastaurin 0.001 | alvocidib 0.057 | Tubastatin A -0.009 | [6] 0.08 | defactinib -0.024 | [7] 0.088 | encorafenib -0.012 | [8] -0.048 | alisertib 0.046 | [9] 0.01 | gefitinib 0.091

FAM89A (UniProt Q96GI7)
inactive: vemurafenib 0.104 | [1] 0.067 | barasertib 0.308 | [2] -0.03 | volasertib 0.046 | [3] 0.043 | [4] 0.021 | [5] 0.057 | saracatinib 0.036 | sotrastaurin 0.011 | alvocidib -0.038 | Tubastatin A -0.019 | [6] -0.013 | defactinib -0.009 | [7] 0.039 | encorafenib 0.059 | [8] -0.283 | alisertib 0.032 | [9] 0.058 | gefitinib -0.024

FAM91A1 (UniProt Q658Y4)
inactive: vemurafenib -0.005 | [1] 0.031 | barasertib -0.042 | [2] -0.006 | volasertib -0.023 | [3] -0.064 | [4] 0.047 | [5] -0.035 | saracatinib 0.008 | sotrastaurin 0.053 | alvocidib 0.026 | Tubastatin A 0.002 | [6] -0.009 | defactinib 0.022 | [7] 0.035 | encorafenib -0.017 | [8] -0.026 | alisertib 0.012 | [9] 0 | gefitinib 0.008

FEM1B (UniProt Q9UK73)
inactive: vemurafenib 0.051 | [1] 0.057 | barasertib 0.054 | [2] 0.1 | volasertib -0.191 | [3] -0.016 | [4] -0.203 | [5] 0.056 | saracatinib 0.038 | sotrastaurin 0.029 | alvocidib -0.089 | Tubastatin A 0.023 | [6] 0.058 | defactinib 0.028 | [7] 0.02 | encorafenib 0.044 | [8] -0.008 | alisertib 0.015 | [9] 0.321 | gefitinib 0.02
